Some of the results follow. These are further read-outs of the screen, such as a control signal, another cell line or another target. No call is given for them. The list favours compounds with an active or inconclusive main result. Potencies come from curve fits of mixed quality, noted in brackets.
Assay: qHTS Assay to Find Inhibitors of Chronic Active B-Cell Receptor Signaling
Settings: ABC-DLBCL IkBa-CBG/CBR reporter, luminescence ratio (green luciferase fused to IkBa over red control in TMD8 lymphoma cells), 4 h
Summary of the method: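 TMD8 human ABC-DLBCL cells with doxycycline-inducible IκBα–green luciferase fusion and unfused red luciferase, in 0.5% FBS medium; compounds up to 46 uM, 4 h at 37C. Green/red luminescence ratio, filter-overlap corrected, fitted to concentration-response curves.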

[1] = measured here: CBR red luminescence, cell number
[2] = measured here: IkBa-CBG green luminescence

Row | Structure (SMILES) | AC50 [1] | AC50 [2]
1 | O=C(Nc1cccc(C(=O)O)c1)/C(=C\c1ccc2c(c1)OCO2)NC(=O)c1ccco1 | 31.6 µM [rising, single point] | –
2 | COc1ccc(-c2cnc(N)n2C)cc1 | 35.5 µM [falling, partial curve, poor fit] | –
3 | Cc1cc(C)nc(-n2nc(C)cc2NC(=O)CNC(C)c2ccccc2)n1 (configuration not stated) | 0.794 µM [rising, partial curve, poor fit] | –
4 | COC(=O)C1(Cc2cc(-c3ccc(Cl)cc3)no2)CCN(C(=O)OC(C)(C)C)CC1 | 12.6 µM [rising, partial curve, poor fit] | –
5 | COc1ccc(CNC(=O)COC(=O)c2ccc(S(=O)(=O)NCc3ccco3)cc2)cc1 | 5.17 µM [rising, single point] | –
6 | CSc1cccc(NC(=O)Nc2ccccc2C(N)=O)c1 | 35.5 µM [falling, single point] | –
7 | COC(=O)CN(C)C1CC(=O)N(c2ccc(Cl)cc2)C1=O (configuration not stated) | 23.1 µM [falling, single point] | –
8 | NC(=O)c1ccsc1NC(=O)COC(=O)Cc1c[nH]c2ccccc12 | 11.6 µM [falling, partial curve, poor fit] | –
9 | N#Cc1c(NCCN)nc(-c2ccco2)c2c1CCCC2 | 6.51 µM [falling, partial curve, poor fit] | 6.51 µM [rising, partial curve, poor fit]
10 | COc1ccccc1NC(=O)Cc1noc(CSc2cccc[n+]2[O-])n1 | – | 29.1 µM [falling, single point]
11 | COc1ccccc1N1CCN(C2=Nc3cccc4cccc2c34)CC1 | 35.5 µM [falling, single point] | –
12 | CC1CC(OCC(O)CN2CCCCC2C)CC(C)(C)C1 (configuration not stated) | 0.708 µM [rising, full curve, poor fit] | –
13 | O=C1OCC2=C1C(c1ccc(F)cc1)c1cc3c(cc1N2)OCO3 (configuration not stated) | 0.708 µM [rising, full curve, poor fit] | 0.355 µM [falling, full curve, poor fit]
14 | Cc1cccc(C)c1N=Nc1c(C)cc(O)cc1C | 17.8 µM [rising, partial curve] | –
15 | CN(C)CC#CCCCCCCC#CCN(C)C | 1.16 µM [falling, partial curve, poor fit] | –
16 | Cc1cc(NC(=O)Cc2cccs2)nn1CC(=O)NCc1ccco1 | 16.4 µM [rising, single point] | –
17 | Cc1nc(Nc2cccc(Cl)c2)c2oc3ccccc3c2n1 | 12.6 µM [falling, single point] | –
18 | CC(=O)c1cccc(NC(=S)NC(=O)CC(C)C)c1 | 3.26 µM [rising, full curve, poor fit] | –
19 | COc1ccc(-c2nc(N/N=C(\C)c3ccc(O)cc3)c3ccccc3n2)cc1 | 3.98 µM [rising, partial curve, poor fit] | –
20 | CCCSCCCNC(=O)CC1Oc2ccccc2NC1=O (configuration not stated) | 23.1 µM [falling, partial curve, poor fit] | –
21 | COC(=O)c1cc(NC(=O)c2ccccc2)c(=O)oc1C | 12.6 µM [falling, partial curve, poor fit] | –
22 | Cc1ccccc1C(=O)N1CCN(CCNC(=O)C(=O)Nc2ccc(Br)cc2)CC1 | 15.8 µM [falling, partial curve] | –

Looked up by structure from the list above, 4 records:
Row | Structure (SMILES) | AC50 [1] | AC50 [2]
11 | COc1ccccc1N1CCN(C2=Nc3cccc4cccc2c34)CC1 | 35.5 µM [falling, single point] | –
13 | O=C1OCC2=C1C(c1ccc(F)cc1)c1cc3c(cc1N2)OCO3 (configuration not stated) | 0.708 µM [rising, full curve, poor fit] | 0.355 µM [falling, full curve, poor fit]
1 | O=C(Nc1cccc(C(=O)O)c1)/C(=C\c1ccc2c(c1)OCO2)NC(=O)c1ccco1 | 31.6 µM [rising, single point] | –
21 | COC(=O)c1cc(NC(=O)c2ccccc2)c(=O)oc1C | 12.6 µM [falling, partial curve, poor fit] | –

More compounds follow:

Row | Structure (SMILES) | AC50 [1] | AC50 [2]
23 | Cc1ccc(C(C)C)c(OCCNC(=S)Nc2cccc3ccccc23)c1 | – | 18.4 µM [rising, partial curve, poor fit]
24 | Cc1cc(C)n(CCc2nc(-c3ccc(C(C)(C)C)cc3)cs2)n1 | 8.2 µM [falling, full curve, poor fit] | –
25 | Cc1cc(C)n(CC(=O)NNC(=O)COc2ccc(Cl)cc2Cl)n1 | 6.51 µM [falling, single point] | –
26 | CCOC(=O)c1sc(NC(=O)c2ccccc2)cc1C | 25.9 µM [falling, partial curve, poor fit] | –
27 | Cc1ccc(OC/C(O)=C(\C#N)c2nc3ccccc3s2)cc1 | 1.16 µM [falling, full curve, poor fit] | –
28 | Fc1ccccc1CNC(=S)Nc1ccc(Cl)cc1 | 0.461 µM [rising, full curve] | –
29 | Cc1c(C(=O)Nc2ccccc2)oc2c1C(=O)CC(C)(C)C2 | 29.1 µM [falling, single point] | –
30 | O=C(CN(Cc1ccccc1)S(=O)(=O)c1ccc(Br)cc1)NCc1ccco1 | 18.4 µM [falling, partial curve, poor fit] | –
31 | OC(CCN1CCCCC1)(c1ccccc1)C1C[C@@H]2C=C[C@H]1C2 (some centres not stated) | 29.1 µM [falling, single point] | –
32 | O=C(O)CCCC(=O)Nc1cccc(-c2nc3ccccc3[nH]2)c1 | 35.5 µM [falling, partial curve, poor fit] | –
33 | COC(=O)c1cccc(NC(=O)Cc2nc(-c3ccccc3)sc2-c2ccc(C)cc2)c1 | 2.59 µM [rising, full curve] | –
34 | O=C1/C(=C/c2ccccn2)SC(=S)N1c1ccc(O)cc1 | 10 µM [falling, partial curve, poor fit] | –
35 | COc1cccc2cc(C(=O)NCCC3=CCCCC3)c(=O)oc12 | 7.08 µM [falling, partial curve, poor fit] | –
36 | O=C(COc1c(Cl)cccc1Cl)NN1C(=O)CSC1=S | 0.891 µM [falling, full curve, poor fit] | –
37 | CN(CC1COc2ccccc2O1)C(=S)NC1CCCCC1 (configuration not stated) | 5.62 µM [rising, single point] | –
38 | COc1cccc(CNC(=O)c2cc(C3CC3)nc3c2cnn3C(C)C)c1 | 29.1 µM [falling, single point] | –
39 | COc1ccc(C(CC(=O)Nc2nccs2)C(C)C)cc1 (configuration not stated) | 10 µM [falling, partial curve, poor fit] | –
40 | CCOC(=O)c1c(NC(=O)CCl)sc(C(=O)N(CC)CC)c1C | 5.17 µM [falling, full curve] | –
41 | CCOC(=O)C1(Cc2ccccc2)CCN(Cc2ccc(C3CCCCO3)s2)CC1 (configuration not stated) | 11.2 µM [rising, single point] | –
42 | CC(=O)c1ccc(NC(=O)Nc2sc(NS(=O)(=O)c3ccccc3)nc2C)cc1 | 11.2 µM [falling, single point] | –
43 | CCc1cccc(NC(=O)Cn2ncn3c(cc4ccccc43)c2=O)c1 | 3.55 µM [rising, partial curve, poor fit] | –
44 | COc1ccc(CNC(=O)CN2C(=O)NC3(CCCc4sccc43)C2=O)cc1OC (configuration not stated) | 20.6 µM [rising, partial curve] | –

Row | Structure (SMILES) | AC50 [1] | AC50 [2]
45 | C=C(C)COc1ccc(-c2ncncc2-c2ccc(Br)cc2)c(O)c1 | 6.31 µM [rising, single point] | –
46 | Cc1sc(N/N=C/c2ccco2)nc1-c1ccccc1 | 32.6 µM [falling, single point] | –
47 | Cc1ccc([N+](=O)[O-])cc1-c1ccc(/C=N/NC(=O)CN2CCOCC2)o1 | 11.2 µM [rising, single point] | –
48 | CC1=C(C(=O)OCc2ccccc2)C(c2ccc3ccccc3c2)NC(=O)N1CCCC(=O)O (configuration not stated) | 22.4 µM [falling, single point] | –
49 | Brc1ccc(OCCCCCN2CCOCC2)cc1 | 31.6 µM [rising, partial curve, poor fit] | –
50 | O=C(NC1CCCCCC1)c1c(O)nc2sccn2c1=O | 14.6 µM [falling, single point] | –
51 | O=C(CCCN1CCc2[nH]c3ccc(F)cc3c2C1)c1ccc(F)cc1 | 10 µM [falling, single point] | –
52 | CN1CCN(CC/C=C2/c3ccccc3Sc3ccc(S(=O)(=O)N(C)C)cc32)CC1 | 35.5 µM [falling, single point] | –
53 | C[C@@]12C(=O)Nc3cc(F)ccc3C(=O)N1[C@H]1c3cc(Br)ccc3OC[C@@H]1[C@@H]2c1ccccc1 | 23.1 µM [falling, single point] | 4.61 µM [rising, full curve, poor fit]
54 | O=C(Nc1ccccc1)c1ccc(S(=O)(=O)Nc2cccc(O)c2)cc1 | 35.5 µM [falling, partial curve, poor fit] | –
55 | CCOC(=O)c1sc(NC(=O)CCSC)nc1C | 22.4 µM [falling, single point] | –
56 | CC(C)Nc1nc(NC(N)=S)nc(NC(C)(C)C)n1 | 2.82 µM [rising, full curve, poor fit] | –
57 | Cc1cc(C)c(S(=O)(=O)NC2CCN(Cc3ccccc3)CC2)c(C)c1 | 20 µM [falling, partial curve] | –
58 | O=C(CSc1nnc(CNC(=O)c2ccccc2F)o1)NCC1CCCO1 (configuration not stated) | 2.31 µM [rising, full curve, poor fit] | –
59 | Cn1c(NCCCN2CCOCC2)nc2c1c(=O)n(Cc1ccc(Cl)cc1)c(=O)n2C | 28.2 µM [falling, single point] | –
60 | CCCCNc1c(-c2ccc(OC)c(SC3CCCCC3)c2)nc2ccc(Cl)cn12 | 3.26 µM [rising, full curve, poor fit] | –
61 | c1ccc2sc(Nc3nc4cc5c(cc4s3)OCO5)nc2c1 | 23.1 µM [falling, single point] | –
62 | O=[N+]([O-])c1ccc2oc(-c3cccc(O)c3)nc2c1 | 11.2 µM [falling, partial curve] | –
63 | CSCCC(Nc1ccc(S(=O)(=O)N2CCOCC2)cc1[N+](=O)[O-])C(=O)OCC(=O)NCC(C)C (configuration not stated) | 18.4 µM [rising, single point] | –
64 | O=C(Nc1cccc2ccccc12)c1ccc(Cn2cc(Cl)cn2)cc1 | 11.2 µM [falling, partial curve, poor fit] | –

Reference: PubChem BioAssay AID493014 (National Center for Advancing Translational Sciences (NCATS), 2011)
